These are yes or no findings as the source states them, for the method shown. For part of these data: Binding can be weak; no strength is given. Sequences can lack the tags named with a protein. For part of these data: In cells and extracts the contact can be indirect.
Columns and labels:
[1] = biological target: T1, NF-YB1-cLUC (rice) (UniProt Q6Z348); assay: split reporter; split luciferase complementation assay (SLCA) in agroinfiltrated Nicotiana benthamiana leaves, about 36 h after infiltration, CCD camera
T1 sequence: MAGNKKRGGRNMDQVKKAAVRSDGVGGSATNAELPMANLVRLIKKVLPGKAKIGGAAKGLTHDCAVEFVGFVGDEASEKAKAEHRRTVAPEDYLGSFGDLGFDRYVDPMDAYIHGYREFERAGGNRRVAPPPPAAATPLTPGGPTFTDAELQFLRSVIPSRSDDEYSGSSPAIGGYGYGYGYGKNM

Chains of the proteins cited; added tags and fusions are not shown. Lines headed by an entry give the natural chain unless they say otherwise; changes in a name come on top.
UniProt Q6F368: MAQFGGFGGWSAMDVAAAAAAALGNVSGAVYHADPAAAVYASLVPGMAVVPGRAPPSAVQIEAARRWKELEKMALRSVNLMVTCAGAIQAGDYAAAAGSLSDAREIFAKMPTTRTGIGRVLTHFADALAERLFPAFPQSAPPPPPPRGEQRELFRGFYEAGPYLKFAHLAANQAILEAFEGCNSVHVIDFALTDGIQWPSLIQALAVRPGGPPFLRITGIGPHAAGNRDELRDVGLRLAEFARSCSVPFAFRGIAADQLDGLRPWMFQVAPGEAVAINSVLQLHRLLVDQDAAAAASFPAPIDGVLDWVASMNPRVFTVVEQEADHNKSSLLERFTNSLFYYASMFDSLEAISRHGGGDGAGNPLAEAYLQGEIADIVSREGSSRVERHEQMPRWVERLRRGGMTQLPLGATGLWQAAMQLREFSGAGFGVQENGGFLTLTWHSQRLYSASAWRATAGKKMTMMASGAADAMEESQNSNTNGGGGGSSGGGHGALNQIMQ

[2] = biological target: T2, NF-YB1-MYC protein (wheat germ expression system) (rice) (UniProt Q6Z348); assay: pull-down; purified recombinant MYC-NF-YB1 used to pull down Flag-tagged protein with amylose beads; proteins from the wheat germ expression system; immunoblot with anti-MYC and anti-Flag; only the target purified
T2 sequence: T1 sequence

[3] = biological target: SLR1-like2 (SLRL2), BD fusion for yeast two-hybrid (rice) (UniProt Q6F368); assay: two-hybrid; pairwise; pGADT7 (AD) and pGBKT7 (BD) fusions co-transformed into yeast AH109; selection on SD/-Leu-Trp-His with 3-AT (25 mM 3AT in Fig. 2a), 30 °C
[4] = biological target: SLRL2 section C3 (PFYRE domain), yeast two-hybrid fusion (rice); assay: as above
[5] = biological target: SLRL2-nLUC (rice); assay: split reporter; split luciferase complementation assay (SLCA) in agroinfiltrated Nicotiana benthamiana leaves, about 36 h after infiltration, CCD camera
[6] = biological target: SLRL2-nYFP (rice); assay: split reporter; BiFC (split YFP) in rice protoplasts, overnight at 25 °C in the dark, confocal microscopy
[7] = biological target: SLRL2-Flag (rice protoplasts) (rice); assay: co-IP; SLRL2-Flag and NF-YB1-Myc transiently co-expressed in rice protoplasts; total protein precipitated with anti-Flag beads; blot with anti-Myc and anti-Flag
[8] = biological target: NF-YC12, yeast two-hybrid fusion (rice); assay: two-hybrid; pairwise; pGADT7 (AD) and pGBKT7 (BD) fusions co-transformed into yeast AH109; selection on SD/-Leu-Trp-His with 3-AT (25 mM 3AT in Fig. 2a), 30 °C

With NF-YC12, split luciferase fusion (rice) as the molecule, how does the binding [1] read?
The binding was “binds”.

How did the binding [2] turn out when bHLH144-Flag protein (rice) was run?
The binding was “no binding”.

B1: NF-YB1, AD fusion for yeast two-hybrid (protein, UniProt Q6Z348 1-186)
chain: T1 sequence
B1 was tested. Which binding [3] did it give?
The binding was “binds”.

And the binding [4]?
The binding was “binds”.

B2: NF-YB1-cLUC (protein, UniProt Q6Z348 1-186)
chain: T1 sequence
B2 was tested. Which binding [5] did it give?
Its binding is “binds”.

B3: NF-YB1-cYFP (protein, UniProt Q6Z348 1-186)
chain: T1 sequence
With B3 as the molecule, how does the binding [6] read?
Its binding is “binds”.

B4: NF-YB1-MYC (rice protoplasts) (protein, UniProt Q6Z348 1-186)
chain: T1 sequence
For B4, which binding [7] is on record?
Its binding is “binds”.

B5: NF-YB1 fragment (32-186aa), yeast two-hybrid fusion (domain or fragment, UniProt Q6Z348 32-186)
chain: AELPMANLVRLIKKVLPGKAKIGGAAKGLTHDCAVEFVGFVGDEASEKAKAEHRRTVAPEDYLGSFGDLGFDRYVDPMDAYIHGYREFERAGGNRRVAPPPPAAATPLTPGGPTFTDAELQFLRSVIPSRSDDEYSGSSPAIGGYGYGYGYGKNM
Which results are given for B5?
binding [3]: binds; binding [8]: binds

— publication PMC11130328
